PubChem BioAssay AID1259254 | NCATS, 2017

- Test: 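Genome-wide screen for genes that prevent DNA re-replication in cancer cells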 (primary screen)
- System: human HCT116 colorectal cancer cells
- Reagent: single siRNA against human genes
- Timing: 3 days
- Measured: 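Imaged Hoechst DNA stain sorts each cell into a cycle phase by DNA amount; per plate, G2 fraction set to 0% for non-targeting and 100% for GMNN siRNA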
- Reading the numbers: G2 robust z-score and G2 cells, % of GMNN control: higher = more G2 cells, more excess DNA replication
- Hit rule: 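An siRNA counts as active if its G2 robust z-score lies at least 5 MADs above the screen median; here such calls match roughly 38% of GMNN control or more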
This is an unselected part of about 59,000 reagents. About 1,550 of all reagents (2.6%) were called active. 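G2 share is only a proxy for re-replication; each gene was hit by three separate siRNAs, and active genes were retested.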 The numbers tell different reagents against one gene apart. Not all columns of the deposit are shown. Not stated in the record: the amount of reagent.

gene	siRNA no.	G2 robust z-score	G2 cells, % of GMNN control	activity call
HSPE1 (heat shock protein family E (Hsp10) member 1)	1	-0.131	2.05	inactive
HSPE1 (heat shock protein family E (Hsp10) member 1)	2	-0.957	-3.76	inactive
HSPE1 (heat shock protein family E (Hsp10) member 1)	3	1.46	13.2	inactive
AP3M2 (adaptor related protein complex 3 subunit mu 2)	1	-0.016	2.85	inactive
AP3M2 (adaptor related protein complex 3 subunit mu 2)	2	-0.501	-0.56	inactive
AP3M2 (adaptor related protein complex 3 subunit mu 2)	3	-0.261	1.13	inactive
SCAF11 (SR-related CTD associated factor 11)	1	5.1	38.9	active
SCAF11 (SR-related CTD associated factor 11)	2	-0.0308	2.75	inactive
SCAF11 (SR-related CTD associated factor 11)	3	5.23	39.7	active
ITCH (itchy E3 ubiquitin protein ligase)	1	-0.886	-3.27	inactive
ITCH (itchy E3 ubiquitin protein ligase)	2	-0.86	-3.09	inactive
ITCH (itchy E3 ubiquitin protein ligase)	3	0.194	4.33	inactive
CARD16 (caspase recruitment domain family member 16)	1	1.57	14	inactive
CARD16 (caspase recruitment domain family member 16)	2	0.659	7.61	inactive
CARD16 (caspase recruitment domain family member 16)	3	1.63	14.5	inactive
FOXJ1 (forkhead box J1)	1	-1.47	-7.41	inactive
FOXJ1 (forkhead box J1)	2	0.125	3.85	inactive
FOXJ1 (forkhead box J1)	3	-0.168	1.79	inactive
LRRC47 (leucine rich repeat containing 47)	1	-1.15	-5.13	inactive
LRRC47 (leucine rich repeat containing 47)	2	0.196	4.35	inactive
LRRC47 (leucine rich repeat containing 47)	3	-0.493	-0.501	inactive
GMCL1 (germ cell-less 1, spermatogenesis associated)	1	-0.694	-1.91	inactive
GMCL1 (germ cell-less 1, spermatogenesis associated)	2	0.178	4.22	inactive
GMCL1 (germ cell-less 1, spermatogenesis associated)	3	0.644	7.5	inactive
BPGM (bisphosphoglycerate mutase)	1	-0.0794	2.41	inactive
BPGM (bisphosphoglycerate mutase)	2	2.37	19.6	inactive
BPGM (bisphosphoglycerate mutase)	3	-0.739	-2.23	inactive
DEDD (death effector domain containing)	1	0.0518	3.33	inactive
DEDD (death effector domain containing)	2	-0.23	1.35	inactive
DEDD (death effector domain containing)	3	2.15	18.1	inactive
SAMD1 (sterile alpha motif domain containing 1)	1	-0.502	-0.562	inactive
SAMD1 (sterile alpha motif domain containing 1)	2	-0.444	-0.159	inactive
SAMD1 (sterile alpha motif domain containing 1)	3	0.459	6.2	inactive
PCDH20 (protocadherin 20)	1	0.371	5.58	inactive
PCDH20 (protocadherin 20)	2	-0.247	1.23	inactive
PCDH20 (protocadherin 20)	3	-0.881	-3.23	inactive
CCDC57 (coiled-coil domain containing 57)	1	-0.562	-0.984	inactive
CCDC57 (coiled-coil domain containing 57)	2	2.1	17.8	inactive
CCDC57 (coiled-coil domain containing 57)	3	-1.19	-5.41	inactive
LLPH (LLP homolog, long-term synaptic facilitation factor)	1	-0.268	1.08	inactive
LLPH (LLP homolog, long-term synaptic facilitation factor)	2	0.373	5.59	inactive
LLPH (LLP homolog, long-term synaptic facilitation factor)	3	-0.992	-4.01	inactive
ABCD3 (ATP binding cassette subfamily D member 3)	1	1.57	14	inactive
ABCD3 (ATP binding cassette subfamily D member 3)	2	-0.431	-0.0648	inactive
ABCD3 (ATP binding cassette subfamily D member 3)	3	-1.15	-5.13	inactive
B4GALT3 (beta-1,4-galactosyltransferase 3)	1	1.77	15.4	inactive
B4GALT3 (beta-1,4-galactosyltransferase 3)	2	0.656	7.58	inactive
B4GALT3 (beta-1,4-galactosyltransferase 3)	3	2.11	17.8	inactive
